Reference: the supplement of paper PMC10849652
The other results are listed elsewhere or left out. Residues, ends and D or L forms follow the SMILES beside them. *: point of attachment. Cbz = O=C(OCc1ccccc1)*

Protein sequences, listed by entry. Tags and fused reporters are not part of them. Lines headed by an entry give the natural chain unless they say otherwise; changes in a name come on top.
UniProt P27144: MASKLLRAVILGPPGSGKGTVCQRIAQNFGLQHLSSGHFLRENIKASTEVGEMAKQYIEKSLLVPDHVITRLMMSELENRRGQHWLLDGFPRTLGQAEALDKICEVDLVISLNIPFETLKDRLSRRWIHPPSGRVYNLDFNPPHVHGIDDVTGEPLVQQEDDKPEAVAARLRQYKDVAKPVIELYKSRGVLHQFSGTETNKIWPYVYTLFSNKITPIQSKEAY
UniProt Q5I7T1: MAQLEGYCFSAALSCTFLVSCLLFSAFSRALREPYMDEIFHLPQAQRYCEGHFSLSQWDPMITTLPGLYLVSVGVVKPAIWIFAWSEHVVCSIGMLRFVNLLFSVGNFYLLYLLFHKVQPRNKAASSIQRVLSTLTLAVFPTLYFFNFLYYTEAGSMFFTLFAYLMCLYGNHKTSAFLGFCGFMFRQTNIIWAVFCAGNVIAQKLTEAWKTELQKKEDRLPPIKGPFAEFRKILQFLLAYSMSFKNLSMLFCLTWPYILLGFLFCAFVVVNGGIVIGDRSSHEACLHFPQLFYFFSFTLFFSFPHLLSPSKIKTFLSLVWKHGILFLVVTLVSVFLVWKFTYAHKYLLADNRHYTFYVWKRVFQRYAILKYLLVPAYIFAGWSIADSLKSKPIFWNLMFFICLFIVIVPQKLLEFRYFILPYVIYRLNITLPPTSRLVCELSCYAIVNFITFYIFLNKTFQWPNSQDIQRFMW
UniProt Q9Y4W6: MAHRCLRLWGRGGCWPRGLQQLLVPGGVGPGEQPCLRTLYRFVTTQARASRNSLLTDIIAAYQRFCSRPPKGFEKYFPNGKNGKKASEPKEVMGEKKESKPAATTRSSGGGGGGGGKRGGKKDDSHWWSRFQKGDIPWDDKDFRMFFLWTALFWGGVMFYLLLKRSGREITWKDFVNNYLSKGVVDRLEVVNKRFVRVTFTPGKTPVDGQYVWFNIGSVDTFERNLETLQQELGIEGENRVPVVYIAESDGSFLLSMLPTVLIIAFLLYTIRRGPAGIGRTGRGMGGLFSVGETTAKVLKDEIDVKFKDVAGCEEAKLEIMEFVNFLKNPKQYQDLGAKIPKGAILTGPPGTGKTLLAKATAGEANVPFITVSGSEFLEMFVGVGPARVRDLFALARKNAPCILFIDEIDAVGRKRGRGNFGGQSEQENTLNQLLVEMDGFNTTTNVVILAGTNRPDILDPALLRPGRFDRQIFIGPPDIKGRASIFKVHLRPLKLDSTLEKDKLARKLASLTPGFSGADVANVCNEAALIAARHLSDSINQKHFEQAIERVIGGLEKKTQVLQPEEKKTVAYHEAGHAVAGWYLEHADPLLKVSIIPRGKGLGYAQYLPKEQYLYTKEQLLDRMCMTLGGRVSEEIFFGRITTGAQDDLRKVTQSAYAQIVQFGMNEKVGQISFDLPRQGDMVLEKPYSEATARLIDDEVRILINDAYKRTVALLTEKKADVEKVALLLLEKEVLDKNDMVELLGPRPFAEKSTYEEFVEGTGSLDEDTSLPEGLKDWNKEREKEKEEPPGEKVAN
UniProt Q96Q83: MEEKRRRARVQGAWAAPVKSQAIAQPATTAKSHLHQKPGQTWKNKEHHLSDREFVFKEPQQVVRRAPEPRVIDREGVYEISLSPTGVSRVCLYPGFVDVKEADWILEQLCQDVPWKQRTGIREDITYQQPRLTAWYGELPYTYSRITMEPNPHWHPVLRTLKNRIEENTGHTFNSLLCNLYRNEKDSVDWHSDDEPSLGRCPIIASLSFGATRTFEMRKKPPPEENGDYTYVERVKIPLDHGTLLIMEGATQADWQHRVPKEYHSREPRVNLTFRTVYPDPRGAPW
UniProt Q3KRA9: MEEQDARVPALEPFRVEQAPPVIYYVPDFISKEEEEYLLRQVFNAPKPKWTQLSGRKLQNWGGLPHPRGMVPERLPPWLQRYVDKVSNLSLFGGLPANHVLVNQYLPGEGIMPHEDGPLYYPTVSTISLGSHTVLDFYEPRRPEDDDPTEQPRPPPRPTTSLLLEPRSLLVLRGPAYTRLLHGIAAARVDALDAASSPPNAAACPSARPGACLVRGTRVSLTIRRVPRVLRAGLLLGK
UniProt Q9Y303: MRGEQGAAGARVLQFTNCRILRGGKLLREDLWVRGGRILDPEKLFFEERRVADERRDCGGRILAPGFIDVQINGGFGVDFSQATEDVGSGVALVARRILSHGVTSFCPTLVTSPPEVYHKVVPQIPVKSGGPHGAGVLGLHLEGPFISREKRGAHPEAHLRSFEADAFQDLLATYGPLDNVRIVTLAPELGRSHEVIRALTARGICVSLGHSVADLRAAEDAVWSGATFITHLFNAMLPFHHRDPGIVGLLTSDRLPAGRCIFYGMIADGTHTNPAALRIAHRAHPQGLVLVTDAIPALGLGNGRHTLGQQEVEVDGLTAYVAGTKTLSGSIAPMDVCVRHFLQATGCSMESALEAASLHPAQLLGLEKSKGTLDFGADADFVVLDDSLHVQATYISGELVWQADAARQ
UniProt P04075: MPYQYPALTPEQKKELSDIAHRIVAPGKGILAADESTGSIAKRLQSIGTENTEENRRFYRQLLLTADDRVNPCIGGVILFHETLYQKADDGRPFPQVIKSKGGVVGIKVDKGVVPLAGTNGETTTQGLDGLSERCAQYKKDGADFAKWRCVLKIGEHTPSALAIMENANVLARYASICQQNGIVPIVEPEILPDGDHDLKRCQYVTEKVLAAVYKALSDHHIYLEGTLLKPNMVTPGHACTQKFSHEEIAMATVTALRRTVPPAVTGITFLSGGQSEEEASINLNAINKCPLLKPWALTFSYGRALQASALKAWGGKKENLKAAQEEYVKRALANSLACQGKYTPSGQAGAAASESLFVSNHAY
UniProt Q01433: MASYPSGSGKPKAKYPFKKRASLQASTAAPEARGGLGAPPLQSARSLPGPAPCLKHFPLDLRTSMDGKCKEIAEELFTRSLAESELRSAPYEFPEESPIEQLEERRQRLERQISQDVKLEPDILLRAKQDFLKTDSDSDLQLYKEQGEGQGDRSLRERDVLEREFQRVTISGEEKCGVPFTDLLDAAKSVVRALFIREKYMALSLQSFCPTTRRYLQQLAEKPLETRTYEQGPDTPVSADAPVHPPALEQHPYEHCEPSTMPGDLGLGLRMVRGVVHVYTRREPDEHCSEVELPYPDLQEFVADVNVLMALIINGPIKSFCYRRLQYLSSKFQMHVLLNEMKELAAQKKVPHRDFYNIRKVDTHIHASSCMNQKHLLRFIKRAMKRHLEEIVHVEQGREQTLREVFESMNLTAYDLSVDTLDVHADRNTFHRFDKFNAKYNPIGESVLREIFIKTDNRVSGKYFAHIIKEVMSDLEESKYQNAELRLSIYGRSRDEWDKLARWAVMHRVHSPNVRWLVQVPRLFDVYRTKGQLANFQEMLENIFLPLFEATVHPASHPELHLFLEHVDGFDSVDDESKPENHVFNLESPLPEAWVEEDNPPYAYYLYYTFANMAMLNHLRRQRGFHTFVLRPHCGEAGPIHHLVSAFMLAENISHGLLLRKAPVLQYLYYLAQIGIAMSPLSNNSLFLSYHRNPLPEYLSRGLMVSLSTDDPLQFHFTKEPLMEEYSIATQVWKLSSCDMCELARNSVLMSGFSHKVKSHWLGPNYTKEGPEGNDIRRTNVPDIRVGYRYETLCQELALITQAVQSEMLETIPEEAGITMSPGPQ
UniProt P00352: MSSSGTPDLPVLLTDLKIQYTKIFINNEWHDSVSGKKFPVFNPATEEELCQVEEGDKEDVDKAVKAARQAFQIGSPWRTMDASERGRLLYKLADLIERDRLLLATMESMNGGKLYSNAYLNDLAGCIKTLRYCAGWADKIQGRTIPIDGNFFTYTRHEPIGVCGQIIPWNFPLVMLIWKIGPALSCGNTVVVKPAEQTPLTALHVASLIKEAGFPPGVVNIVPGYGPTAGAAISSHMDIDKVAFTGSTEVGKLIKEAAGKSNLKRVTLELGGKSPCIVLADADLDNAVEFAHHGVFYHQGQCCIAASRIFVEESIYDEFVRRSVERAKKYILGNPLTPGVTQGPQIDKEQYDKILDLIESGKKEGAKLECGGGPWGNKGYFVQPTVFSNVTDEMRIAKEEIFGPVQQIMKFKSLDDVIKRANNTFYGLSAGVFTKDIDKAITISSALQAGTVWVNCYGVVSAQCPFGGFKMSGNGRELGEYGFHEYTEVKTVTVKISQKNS
UniProt Q53H12: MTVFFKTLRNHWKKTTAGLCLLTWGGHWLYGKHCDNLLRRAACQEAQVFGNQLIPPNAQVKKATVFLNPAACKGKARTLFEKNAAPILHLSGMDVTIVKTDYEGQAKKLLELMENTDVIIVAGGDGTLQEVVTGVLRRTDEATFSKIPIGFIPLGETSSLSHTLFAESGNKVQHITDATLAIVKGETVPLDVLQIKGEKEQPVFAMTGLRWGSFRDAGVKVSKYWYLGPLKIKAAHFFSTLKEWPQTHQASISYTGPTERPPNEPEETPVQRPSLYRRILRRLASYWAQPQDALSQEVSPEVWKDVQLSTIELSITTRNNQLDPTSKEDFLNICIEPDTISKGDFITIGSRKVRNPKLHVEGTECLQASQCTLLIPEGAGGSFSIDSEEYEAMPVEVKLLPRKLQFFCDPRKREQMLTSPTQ
UniProt Q8IZ83: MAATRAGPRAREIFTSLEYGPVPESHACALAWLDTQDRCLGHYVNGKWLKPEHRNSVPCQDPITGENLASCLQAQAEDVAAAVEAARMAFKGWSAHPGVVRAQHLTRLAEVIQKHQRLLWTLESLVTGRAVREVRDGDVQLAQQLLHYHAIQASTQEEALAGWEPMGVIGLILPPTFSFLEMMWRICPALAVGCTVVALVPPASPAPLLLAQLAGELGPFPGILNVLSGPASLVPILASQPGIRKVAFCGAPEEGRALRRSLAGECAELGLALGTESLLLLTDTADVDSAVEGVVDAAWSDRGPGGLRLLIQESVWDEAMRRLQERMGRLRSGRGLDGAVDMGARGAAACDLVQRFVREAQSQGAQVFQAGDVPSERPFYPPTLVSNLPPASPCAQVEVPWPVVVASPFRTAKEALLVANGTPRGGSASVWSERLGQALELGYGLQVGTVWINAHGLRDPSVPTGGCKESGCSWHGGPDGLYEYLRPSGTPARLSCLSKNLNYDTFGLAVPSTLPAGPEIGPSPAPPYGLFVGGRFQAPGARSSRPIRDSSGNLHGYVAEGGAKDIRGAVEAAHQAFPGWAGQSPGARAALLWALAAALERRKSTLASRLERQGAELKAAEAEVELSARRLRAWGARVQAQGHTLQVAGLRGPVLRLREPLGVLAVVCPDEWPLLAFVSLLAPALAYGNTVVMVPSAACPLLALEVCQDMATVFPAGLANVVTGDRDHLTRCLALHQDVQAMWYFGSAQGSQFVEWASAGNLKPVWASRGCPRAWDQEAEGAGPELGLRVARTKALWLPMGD
UniProt Q92667: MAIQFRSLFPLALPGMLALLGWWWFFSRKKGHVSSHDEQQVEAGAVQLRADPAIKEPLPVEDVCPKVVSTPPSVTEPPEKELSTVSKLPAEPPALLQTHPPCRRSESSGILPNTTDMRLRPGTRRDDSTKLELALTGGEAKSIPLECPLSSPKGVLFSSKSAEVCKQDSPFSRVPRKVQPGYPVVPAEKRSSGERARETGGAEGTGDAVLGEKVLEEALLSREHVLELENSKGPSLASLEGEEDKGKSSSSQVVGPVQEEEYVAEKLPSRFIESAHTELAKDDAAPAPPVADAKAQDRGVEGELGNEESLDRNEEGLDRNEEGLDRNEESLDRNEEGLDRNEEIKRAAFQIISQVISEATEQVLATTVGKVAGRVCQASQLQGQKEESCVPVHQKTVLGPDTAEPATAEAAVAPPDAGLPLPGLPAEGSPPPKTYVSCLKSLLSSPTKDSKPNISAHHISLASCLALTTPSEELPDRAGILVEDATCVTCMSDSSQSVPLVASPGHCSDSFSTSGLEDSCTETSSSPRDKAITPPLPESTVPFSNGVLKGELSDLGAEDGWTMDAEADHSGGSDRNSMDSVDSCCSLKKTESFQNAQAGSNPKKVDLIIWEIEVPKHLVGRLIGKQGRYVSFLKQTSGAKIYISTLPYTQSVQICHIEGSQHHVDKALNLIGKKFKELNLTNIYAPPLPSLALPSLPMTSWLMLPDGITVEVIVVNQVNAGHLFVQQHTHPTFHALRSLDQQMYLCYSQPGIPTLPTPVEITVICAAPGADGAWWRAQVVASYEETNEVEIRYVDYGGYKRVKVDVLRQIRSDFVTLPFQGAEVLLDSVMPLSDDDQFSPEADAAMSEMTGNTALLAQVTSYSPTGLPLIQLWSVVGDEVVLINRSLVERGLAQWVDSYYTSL

How the values were obtained:
Assay in all cases: log2 fold change, soluble protein after heating vs DMSO (PISA); higher = thermal stabilisation; K562 cells, 10 uM, 30 min; active = over 0.2 and 3.5 SD of the protein, either way, in both replicates (recomputed)
IRAK-1-4 Inhibitor I = compound: C1COCCN1CCN2C3=CC=CC=C3N=C2NC(=O)C4=CC(=CC=C4)[N+](=O)[O-] [IRAK-1-4 Inhibitor I]
In short: (§1)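 Aliquots of K562 cells (2×10^6 cells/mL) treated with 10 μM compound for 30 min were heated for 3 min over 48°C-58°C. After pooling and extraction in PBS with 0.5% NP-40 at 4°C, soluble protein from a 21,000xg, 90 min spin was quantified by TMTpro 16plex LC-MS/MS with channel sums equalised. Thermal stability is expressed against control samples, from duplicates, as a log2 fold change.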

ibrutinib = compound: C=CC(=O)N1CCC[C@@H](n2nc(-c3ccc(Oc4ccccc4)cc3)c3c(N)ncnc32)C1 [ibrutinib]
In short: as §1

[1] = compound: CC(=O)c1cnc2ccc(-c3cc(Cl)c(O)c(Cl)c3)nc2c1N[C@H]1CC[C@H](CN(C)C)CC1
In short: as §1

ralimetinib = compound: CC(C)(C)Cn1c(N)nc2ccc(-c3[nH]c(C(C)(C)C)nc3-c3ccc(F)cc3)nc21 [ralimetinib]
In short: as §1

[2] = compound: CC(C)(O)CC(=O)NCCn1ccc2ncnc(Nc3ccc(Oc4cccc(C(F)(F)F)c4)c(Cl)c3)c21
In short: as §1

[3] = compound: CC(C)C1=C2N=C(C=C(N2N=C1)NCC3=CC=CC=C3)NCCCCCCN
In short: as §1

[4] = compound: CC(C)C[C@@H](C=O)NC(=O)[C@H](CC(C)C)NC(=O)[C@H](CC(C)C)NC(=O)OCc1ccccc1
In short: as §1

pinometostat = compound: CC(C)N(C[C@H]1O[C@@H](n2cnc3c(N)ncnc32)[C@H](O)[C@@H]1O)[C@H]1C[C@@H](CCc2nc3cc(C(C)(C)C)ccc3[nH]2)C1 [pinometostat]
In short: as §1

[5] = compound: CC1=C(C(CC(=O)N1)C2=CC=C(C=C2)C(F)(F)F)C(=O)NC3=C(C=C4C(=C3)C=NN4)F
In short: as §1

[6] = compound: CC1=C(C2=C(C=C1)C(=O)C3=CC=CC=C3N2CCCN)C
In short: as §1

[7] = compound: CC1=C(C=C(C=C1)NC(=O)C2=CC(=CC=C2)C(C)(C)C#N)NC3=CC4=C(C=C3)N=CN(C4=O)C
In short: as §1

[8] = compound: CC1=C(C=C(C=C1)NC(=O)C2=CC(=CC=C2)N(C)C)NC(=O)C3=CC=C(C=C3)O
In short: as §1

[9] = compound: CC1=CC=C(C=C1)SC2=C3C=C(SC3=CN=C2)C(=O)N
In short: as §1

[10] = compound: CC1=NC(=CC=C1)C2=C(N=C(N2)C(C)(C)C)C3=CC4=NC=CN=C4C=C3
In short: as §1

Nexturastat A = compound: CCCCN(Cc1ccc(C(=O)NO)cc1)C(=O)Nc1ccccc1 [Nexturastat A]
In short: as §1

vemurafenib = compound: CCCS(=O)(=O)Nc1ccc(F)c(C(=O)c2c[nH]c3ncc(-c4ccc(Cl)cc4)cc23)c1F [vemurafenib]
In short: as §1

[11] = compound: CCCS(=O)(=O)Nc1ccc(F)c(C(=O)c2c[nH]c3ncc(Cl)cc23)c1F
In short: as §1

[12] = compound: CCCc1cc(C)[nH]c(=O)c1CNC(=O)c1cc(-c2ccnc(N3CCN(C)CC3)c2)cc2c1cnn2C(C)C
In short: as §1

givinostat = compound: CCN(CC)Cc1ccc2cc(COC(=O)Nc3ccc(C(=O)NO)cc3)ccc2c1 [givinostat]
In short: as §1

barasertib = compound: CCN(CCCOc1ccc2c(Nc3cc(CC(=O)Nc4cccc(F)c4)[nH]n3)ncnc2c1)CCOP(=O)(O)O [barasertib]
In short: as §1

Measured: log2 fold change

AGO2 (UniProt Q9UKV8)
inactive: IRAK-1-4 Inhibitor I -0.011 | ibrutinib 0.007 | [1] 0.012 | ralimetinib -0.006 | [2] 0.038 | [3] 0.062 | [4] -0.009 | pinometostat -0.019 | [5] 0.008 | [6] 0.221 | [7] -0.01 | [8] 0.041 | [9] -0.014 | [10] 0.024 | Nexturastat A 0.012 | vemurafenib -0.012 | [11] -0.005 | [12] 0.003 | givinostat 0.008 | barasertib -0.045

AK4 (UniProt P27144)
inactive: IRAK-1-4 Inhibitor I -0.004 | ibrutinib -0.008 | [1] -0.033 | ralimetinib -0.097 | [2] -0.045 | [3] -0.025 | [4] -0.026 | pinometostat -0.051 | [5] -0.025 | [6] 0.115 | [7] 0.019 | [8] -0.027 | [9] -0.017 | [10] -0.01 | Nexturastat A -0.008 | vemurafenib 0.032 | [11] -0.005 | [12] -0.042 | givinostat 0.017 | barasertib 0.003

ANAPC1 (UniProt Q9H1A4)
inactive: IRAK-1-4 Inhibitor I -0.043 | ibrutinib -0.025 | [1] -0.01 | ralimetinib 0.034 | [2] -0.02 | [3] -0.059 | [4] -0.018 | pinometostat 0.035 | [5] 0.009 | [6] -0.033 | [7] -0.011 | [8] 0.007 | [9] -0.013 | [10] -0.024 | Nexturastat A 0.029 | vemurafenib -0.007 | [11] 0 | [12] 0.04 | givinostat 0.003 | barasertib -0.007

ALG10B (UniProt Q5I7T1)
inactive: IRAK-1-4 Inhibitor I 0.022 | ibrutinib -0.021 | [1] 0.094 | ralimetinib -0.101 | [2] 0.087 | [3] -0.067 | [4] 0.026 | pinometostat 0.043 | [5] 0.19 | [6] 0.058 | [7] 0.01 | [8] 0.049 | [9] -0.023 | [10] 0.107 | Nexturastat A -0.013 | vemurafenib 0.111 | [11] -0.037 | [12] -0.087 | givinostat 0.092 | barasertib -0.009

AK2 isoform 2 (UniProt P54819)
inactive: IRAK-1-4 Inhibitor I 0.035 | ibrutinib -0.015 | [1] 0.011 | ralimetinib -0.068 | [2] -0.001 | [3] 0.068 | [4] -0.014 | pinometostat -0.038 | [5] 0.012 | [6] 0.002 | [7] -0.003 | [8] 0.011 | [9] -0.019 | [10] -0.002 | Nexturastat A -0.04 | vemurafenib -0.02 | [11] -0.049 | [12] 0.107 | givinostat -0.025 | barasertib -0.003

AFG3L2 (UniProt Q9Y4W6)
inactive: IRAK-1-4 Inhibitor I -0.005 | ibrutinib -0.037 | [1] -0.01 | ralimetinib -0.058 | [2] -0.099 | [3] -0.154 | [4] 0.004 | pinometostat 0.003 | [5] 0.021 | [6] 0.026 | [7] -0.018 | [8] -0.002 | [9] 0.011 | [10] 0.05 | Nexturastat A -0.059 | vemurafenib 0.007 | [11] 0.007 | [12] -0.015 | givinostat -0.065 | barasertib 0.021

ALKBH3 (UniProt Q96Q83)
inactive: IRAK-1-4 Inhibitor I 0.122 | ibrutinib 0.065 | [1] -0.018 | ralimetinib -0.053 | [2] 0.085 | [3] 0.029 | [4] 0.048 | pinometostat -0.008 | [5] 0.027 | [6] 0.016 | [7] -0.016 | [8] 0.013 | [9] 0.013 | [10] -0.031 | Nexturastat A 0.024 | vemurafenib 0.106 | [11] -0.044 | [12] 0.043 | givinostat -0.016 | barasertib 0.009

AKT1S1 isoform 3 (UniProt Q96B36)
inactive: IRAK-1-4 Inhibitor I 0.054 | ibrutinib -0.011 | [1] 0.129 | ralimetinib -0.012 | [2] 0.048 | [3] 0.028 | [4] -0.006 | pinometostat 0.001 | [5] -0.006 | [6] 0.002 | [7] -0.029 | [8] 0.002 | [9] -0.037 | [10] -0.038 | Nexturastat A -0.016 | vemurafenib -0.075 | [11] -0.04 | [12] -0.049 | givinostat 0 | barasertib 0.043

ALKBH6 isoform 2 (UniProt Q3KRA9)
inactive: IRAK-1-4 Inhibitor I 0.13 | ibrutinib -0.039 | [1] 0.01 | ralimetinib 0.017 | [2] 0.031 | [3] 0.02 | [4] 0.126 | pinometostat -0.033 | [5] -0.002 | [6] 0.029 | [7] -0.015 | [8] 0.044 | [9] -0.046 | [10] -0.008 | Nexturastat A 0.073 | vemurafenib -0.098 | [11] 0.043 | [12] 0.001 | givinostat -0.02 | barasertib 0.014

Copied from the entries so far (two entries):
AKT1S1 isoform 3 (UniProt Q96B36)
inactive: IRAK-1-4 Inhibitor I 0.054 | ibrutinib -0.011 | [1] 0.129 | ralimetinib -0.012 | [2] 0.048 | [3] 0.028 | [4] -0.006 | pinometostat 0.001 | [5] -0.006 | [6] 0.002 | [7] -0.029 | [8] 0.002 | [9] -0.037 | [10] -0.038 | Nexturastat A -0.016 | vemurafenib -0.075 | [11] -0.04 | [12] -0.049 | givinostat 0 | barasertib 0.043

ALKBH6 isoform 2 (UniProt Q3KRA9)
inactive: IRAK-1-4 Inhibitor I 0.13 | ibrutinib -0.039 | [1] 0.01 | ralimetinib 0.017 | [2] 0.031 | [3] 0.02 | [4] 0.126 | pinometostat -0.033 | [5] -0.002 | [6] 0.029 | [7] -0.015 | [8] 0.044 | [9] -0.046 | [10] -0.008 | Nexturastat A 0.073 | vemurafenib -0.098 | [11] 0.043 | [12] 0.001 | givinostat -0.02 | barasertib 0.014

(listing goes on)

AMDHD2 isoform 3 (UniProt Q9Y303)
inactive: IRAK-1-4 Inhibitor I 0.042 | ibrutinib 0.005 | [1] -0.007 | ralimetinib -0.051 | [2] -0.106 | [3] -0.032 | [4] 0.035 | pinometostat -0.029 | [5] -0.016 | [6] 0.088 | [7] -0.018 | [8] -0.022 | [9] -0.01 | [10] -0.043 | Nexturastat A 0.071 | vemurafenib -0.032 | [11] 0.001 | [12] -0.014 | givinostat 0.016 | barasertib -0.02

ALDOA isoform 2 (UniProt P04075)
inactive: IRAK-1-4 Inhibitor I 0.052 | ibrutinib 0.015 | [1] 0.026 | ralimetinib -0.006 | [2] 0.042 | [3] 0.081 | [4] 0.008 | pinometostat -0.062 | [5] 0.035 | [6] -0.002 | [7] 0.036 | [8] 0.024 | [9] 0.015 | [10] 0.037 | Nexturastat A -0.065 | vemurafenib 0.034 | [11] 0.002 | [12] -0.078 | givinostat -0.015 | barasertib -0.004

AMPD2 (UniProt Q01433)
inactive: IRAK-1-4 Inhibitor I 0.045 | ibrutinib 0.043 | [1] -0.012 | ralimetinib -0.036 | [2] -0.014 | [3] 0.039 | [4] -0.024 | pinometostat -0.024 | [5] 0.029 | [6] 0.035 | [7] -0.011 | [8] -0.008 | [9] 0.01 | [10] 0.02 | Nexturastat A -0.044 | vemurafenib -0.026 | [11] -0.001 | [12] -0.021 | givinostat -0.006 | barasertib 0.004

ALDH1A1 (UniProt P00352)
inactive: IRAK-1-4 Inhibitor I 0.022 | ibrutinib 0.128 | [1] 0.018 | ralimetinib -0.009 | [2] -0.001 | [3] 0.047 | [4] -0.037 | pinometostat -0.022 | [5] -0.027 | [6] -0.001 | [7] 0.032 | [8] -0.041 | [9] 0.038 | [10] 0.035 | Nexturastat A -0.079 | vemurafenib 0.003 | [11] 0.013 | [12] 0.004 | givinostat 0.035 | barasertib -0.015

AGK (UniProt Q53H12)
inactive: IRAK-1-4 Inhibitor I 0.057 | ibrutinib 0.029 | [1] 0.012 | ralimetinib -0.035 | [2] -0.072 | [3] -0.12 | [4] 0.004 | pinometostat -0.031 | [5] 0.023 | [6] 0.019 | [7] -0.02 | [8] 0.003 | [9] 0.039 | [10] 0.066 | Nexturastat A -0.056 | vemurafenib -0.003 | [11] 0.032 | [12] -0.016 | givinostat 0.026 | barasertib 0.021

ALDH16A1 (UniProt Q8IZ83)
inactive: IRAK-1-4 Inhibitor I 0.018 | ibrutinib 0.002 | [1] -0.001 | ralimetinib -0.002 | [2] -0.02 | [3] 0.012 | [4] -0.027 | pinometostat -0.028 | [5] 0.01 | [6] 0.01 | [7] -0.016 | [8] -0.001 | [9] 0.009 | [10] -0.006 | Nexturastat A -0.037 | vemurafenib 0.023 | [11] -0.004 | [12] -0.032 | givinostat -0.028 | barasertib 0

AKAP1 (UniProt Q92667)
inactive: IRAK-1-4 Inhibitor I -0.098 | ibrutinib -0.034 | [1] -0.082 | ralimetinib 0.14 | [2] 0.042 | [3] -0.176 | [4] 0.046 | pinometostat 0.197 | [5] 0.032 | [6] 0.042 | [7] 0.004 | [8] 0.003 | [9] -0.033 | [10] -0.081 | Nexturastat A 0.2 | vemurafenib -0.01 | [11] 0.057 | [12] 0.115 | givinostat 0.065 | barasertib -0.008
